doi:10.1101/2024.11.19.624272
Results are given in words; binding and its absence hold for the method and conditions named. In cells and extracts the contact can be indirect. These calls come from enrichment with a bait or labelling near it, and not all partners need be listed.

Amino acid sequences for entries named in this document (tags omitted). A change or cut given only in a name is not applied to a line headed by its entry. Residues count along the entry.
UniProt O00481, residues 30-513: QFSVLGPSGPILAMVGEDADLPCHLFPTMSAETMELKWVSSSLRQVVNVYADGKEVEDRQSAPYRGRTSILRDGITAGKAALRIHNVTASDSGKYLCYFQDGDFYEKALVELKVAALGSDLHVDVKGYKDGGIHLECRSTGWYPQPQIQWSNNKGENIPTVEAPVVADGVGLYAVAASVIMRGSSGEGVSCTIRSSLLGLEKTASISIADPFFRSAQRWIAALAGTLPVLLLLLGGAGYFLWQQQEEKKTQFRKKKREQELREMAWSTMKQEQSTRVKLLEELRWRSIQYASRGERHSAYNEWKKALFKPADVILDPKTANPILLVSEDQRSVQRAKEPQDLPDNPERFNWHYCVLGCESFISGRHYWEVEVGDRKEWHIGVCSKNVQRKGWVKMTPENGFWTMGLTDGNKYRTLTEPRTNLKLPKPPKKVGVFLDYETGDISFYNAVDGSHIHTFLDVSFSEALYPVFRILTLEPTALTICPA
UniProt Q9C0D5: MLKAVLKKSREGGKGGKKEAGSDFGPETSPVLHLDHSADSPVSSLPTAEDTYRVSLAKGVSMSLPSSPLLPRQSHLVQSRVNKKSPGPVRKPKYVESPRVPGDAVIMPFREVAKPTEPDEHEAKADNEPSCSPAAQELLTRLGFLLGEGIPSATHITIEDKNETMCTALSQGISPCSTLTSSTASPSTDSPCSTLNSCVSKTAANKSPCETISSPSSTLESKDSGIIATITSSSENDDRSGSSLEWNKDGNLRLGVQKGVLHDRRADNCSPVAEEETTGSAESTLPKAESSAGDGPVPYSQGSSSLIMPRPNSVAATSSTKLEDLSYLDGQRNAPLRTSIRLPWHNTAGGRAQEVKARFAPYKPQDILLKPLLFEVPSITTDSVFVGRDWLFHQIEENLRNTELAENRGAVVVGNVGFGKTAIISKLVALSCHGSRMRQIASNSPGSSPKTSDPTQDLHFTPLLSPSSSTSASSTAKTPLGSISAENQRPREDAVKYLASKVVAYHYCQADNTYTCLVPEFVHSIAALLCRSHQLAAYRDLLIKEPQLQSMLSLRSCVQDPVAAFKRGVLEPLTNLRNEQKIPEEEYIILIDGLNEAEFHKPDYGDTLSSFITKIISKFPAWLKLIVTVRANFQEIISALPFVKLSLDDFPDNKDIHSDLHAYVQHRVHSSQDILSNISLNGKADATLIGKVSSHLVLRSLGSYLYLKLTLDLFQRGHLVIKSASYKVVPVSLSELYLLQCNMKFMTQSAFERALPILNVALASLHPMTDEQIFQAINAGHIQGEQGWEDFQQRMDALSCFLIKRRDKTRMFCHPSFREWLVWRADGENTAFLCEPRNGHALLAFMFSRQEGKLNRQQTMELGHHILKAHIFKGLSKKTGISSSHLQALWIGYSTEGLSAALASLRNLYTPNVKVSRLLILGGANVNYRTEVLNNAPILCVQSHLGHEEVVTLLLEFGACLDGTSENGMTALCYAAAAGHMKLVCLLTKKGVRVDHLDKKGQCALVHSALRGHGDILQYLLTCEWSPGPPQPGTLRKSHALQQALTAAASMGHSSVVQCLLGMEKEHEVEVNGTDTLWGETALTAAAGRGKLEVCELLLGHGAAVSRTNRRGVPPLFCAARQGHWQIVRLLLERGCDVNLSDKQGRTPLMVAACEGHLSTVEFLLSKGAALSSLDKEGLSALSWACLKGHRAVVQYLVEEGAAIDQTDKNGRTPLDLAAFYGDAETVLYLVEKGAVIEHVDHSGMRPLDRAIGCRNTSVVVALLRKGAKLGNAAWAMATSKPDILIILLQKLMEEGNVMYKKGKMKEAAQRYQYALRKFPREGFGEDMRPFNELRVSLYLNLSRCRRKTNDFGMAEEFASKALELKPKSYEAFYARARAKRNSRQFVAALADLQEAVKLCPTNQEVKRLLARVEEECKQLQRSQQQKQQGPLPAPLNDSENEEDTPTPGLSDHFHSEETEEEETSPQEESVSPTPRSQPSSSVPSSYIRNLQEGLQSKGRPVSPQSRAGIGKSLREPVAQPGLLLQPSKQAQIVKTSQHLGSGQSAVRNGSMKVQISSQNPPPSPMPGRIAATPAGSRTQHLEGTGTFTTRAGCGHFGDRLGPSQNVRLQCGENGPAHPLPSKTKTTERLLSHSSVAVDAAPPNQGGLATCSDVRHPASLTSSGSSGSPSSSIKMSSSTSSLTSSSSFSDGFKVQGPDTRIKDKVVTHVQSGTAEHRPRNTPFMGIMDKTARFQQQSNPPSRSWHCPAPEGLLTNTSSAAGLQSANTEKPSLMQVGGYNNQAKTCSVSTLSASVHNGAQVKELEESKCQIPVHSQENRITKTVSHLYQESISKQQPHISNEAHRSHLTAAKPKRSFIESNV
UniProt Q5VZK9: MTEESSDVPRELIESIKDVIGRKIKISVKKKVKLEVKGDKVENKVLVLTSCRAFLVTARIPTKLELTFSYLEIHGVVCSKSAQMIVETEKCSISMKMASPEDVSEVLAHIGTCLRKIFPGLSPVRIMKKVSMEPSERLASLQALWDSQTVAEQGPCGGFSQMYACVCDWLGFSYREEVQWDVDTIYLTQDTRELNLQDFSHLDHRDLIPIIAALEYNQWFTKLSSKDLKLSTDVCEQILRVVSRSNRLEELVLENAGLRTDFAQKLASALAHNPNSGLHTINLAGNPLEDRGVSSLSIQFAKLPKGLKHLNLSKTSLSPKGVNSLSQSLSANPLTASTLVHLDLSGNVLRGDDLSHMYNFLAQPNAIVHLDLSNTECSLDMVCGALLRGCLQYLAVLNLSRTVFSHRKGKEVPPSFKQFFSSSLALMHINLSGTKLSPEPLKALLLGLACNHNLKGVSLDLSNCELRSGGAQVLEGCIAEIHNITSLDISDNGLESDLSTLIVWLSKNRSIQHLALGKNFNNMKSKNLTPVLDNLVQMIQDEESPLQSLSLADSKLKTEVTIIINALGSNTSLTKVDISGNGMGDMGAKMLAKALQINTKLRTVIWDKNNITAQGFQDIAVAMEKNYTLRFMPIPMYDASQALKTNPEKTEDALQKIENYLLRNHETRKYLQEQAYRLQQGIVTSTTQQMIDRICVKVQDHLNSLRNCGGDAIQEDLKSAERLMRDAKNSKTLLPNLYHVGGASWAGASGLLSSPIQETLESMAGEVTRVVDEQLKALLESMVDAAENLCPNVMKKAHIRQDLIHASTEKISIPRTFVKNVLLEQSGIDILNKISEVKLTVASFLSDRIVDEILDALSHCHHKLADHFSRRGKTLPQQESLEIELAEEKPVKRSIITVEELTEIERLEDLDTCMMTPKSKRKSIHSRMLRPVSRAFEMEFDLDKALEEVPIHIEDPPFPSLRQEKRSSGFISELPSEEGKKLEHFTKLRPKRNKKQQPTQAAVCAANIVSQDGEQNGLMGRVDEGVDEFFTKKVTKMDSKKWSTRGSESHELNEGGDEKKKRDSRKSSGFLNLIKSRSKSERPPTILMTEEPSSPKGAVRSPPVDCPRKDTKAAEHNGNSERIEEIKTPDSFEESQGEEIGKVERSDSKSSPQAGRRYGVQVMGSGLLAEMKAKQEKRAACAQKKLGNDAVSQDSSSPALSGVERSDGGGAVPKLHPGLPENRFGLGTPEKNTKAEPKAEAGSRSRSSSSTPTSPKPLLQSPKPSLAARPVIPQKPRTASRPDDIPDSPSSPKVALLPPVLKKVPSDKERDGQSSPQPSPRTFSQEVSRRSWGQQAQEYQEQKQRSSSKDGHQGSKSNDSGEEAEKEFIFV
UniProt Q58EX2, residues 21-2172: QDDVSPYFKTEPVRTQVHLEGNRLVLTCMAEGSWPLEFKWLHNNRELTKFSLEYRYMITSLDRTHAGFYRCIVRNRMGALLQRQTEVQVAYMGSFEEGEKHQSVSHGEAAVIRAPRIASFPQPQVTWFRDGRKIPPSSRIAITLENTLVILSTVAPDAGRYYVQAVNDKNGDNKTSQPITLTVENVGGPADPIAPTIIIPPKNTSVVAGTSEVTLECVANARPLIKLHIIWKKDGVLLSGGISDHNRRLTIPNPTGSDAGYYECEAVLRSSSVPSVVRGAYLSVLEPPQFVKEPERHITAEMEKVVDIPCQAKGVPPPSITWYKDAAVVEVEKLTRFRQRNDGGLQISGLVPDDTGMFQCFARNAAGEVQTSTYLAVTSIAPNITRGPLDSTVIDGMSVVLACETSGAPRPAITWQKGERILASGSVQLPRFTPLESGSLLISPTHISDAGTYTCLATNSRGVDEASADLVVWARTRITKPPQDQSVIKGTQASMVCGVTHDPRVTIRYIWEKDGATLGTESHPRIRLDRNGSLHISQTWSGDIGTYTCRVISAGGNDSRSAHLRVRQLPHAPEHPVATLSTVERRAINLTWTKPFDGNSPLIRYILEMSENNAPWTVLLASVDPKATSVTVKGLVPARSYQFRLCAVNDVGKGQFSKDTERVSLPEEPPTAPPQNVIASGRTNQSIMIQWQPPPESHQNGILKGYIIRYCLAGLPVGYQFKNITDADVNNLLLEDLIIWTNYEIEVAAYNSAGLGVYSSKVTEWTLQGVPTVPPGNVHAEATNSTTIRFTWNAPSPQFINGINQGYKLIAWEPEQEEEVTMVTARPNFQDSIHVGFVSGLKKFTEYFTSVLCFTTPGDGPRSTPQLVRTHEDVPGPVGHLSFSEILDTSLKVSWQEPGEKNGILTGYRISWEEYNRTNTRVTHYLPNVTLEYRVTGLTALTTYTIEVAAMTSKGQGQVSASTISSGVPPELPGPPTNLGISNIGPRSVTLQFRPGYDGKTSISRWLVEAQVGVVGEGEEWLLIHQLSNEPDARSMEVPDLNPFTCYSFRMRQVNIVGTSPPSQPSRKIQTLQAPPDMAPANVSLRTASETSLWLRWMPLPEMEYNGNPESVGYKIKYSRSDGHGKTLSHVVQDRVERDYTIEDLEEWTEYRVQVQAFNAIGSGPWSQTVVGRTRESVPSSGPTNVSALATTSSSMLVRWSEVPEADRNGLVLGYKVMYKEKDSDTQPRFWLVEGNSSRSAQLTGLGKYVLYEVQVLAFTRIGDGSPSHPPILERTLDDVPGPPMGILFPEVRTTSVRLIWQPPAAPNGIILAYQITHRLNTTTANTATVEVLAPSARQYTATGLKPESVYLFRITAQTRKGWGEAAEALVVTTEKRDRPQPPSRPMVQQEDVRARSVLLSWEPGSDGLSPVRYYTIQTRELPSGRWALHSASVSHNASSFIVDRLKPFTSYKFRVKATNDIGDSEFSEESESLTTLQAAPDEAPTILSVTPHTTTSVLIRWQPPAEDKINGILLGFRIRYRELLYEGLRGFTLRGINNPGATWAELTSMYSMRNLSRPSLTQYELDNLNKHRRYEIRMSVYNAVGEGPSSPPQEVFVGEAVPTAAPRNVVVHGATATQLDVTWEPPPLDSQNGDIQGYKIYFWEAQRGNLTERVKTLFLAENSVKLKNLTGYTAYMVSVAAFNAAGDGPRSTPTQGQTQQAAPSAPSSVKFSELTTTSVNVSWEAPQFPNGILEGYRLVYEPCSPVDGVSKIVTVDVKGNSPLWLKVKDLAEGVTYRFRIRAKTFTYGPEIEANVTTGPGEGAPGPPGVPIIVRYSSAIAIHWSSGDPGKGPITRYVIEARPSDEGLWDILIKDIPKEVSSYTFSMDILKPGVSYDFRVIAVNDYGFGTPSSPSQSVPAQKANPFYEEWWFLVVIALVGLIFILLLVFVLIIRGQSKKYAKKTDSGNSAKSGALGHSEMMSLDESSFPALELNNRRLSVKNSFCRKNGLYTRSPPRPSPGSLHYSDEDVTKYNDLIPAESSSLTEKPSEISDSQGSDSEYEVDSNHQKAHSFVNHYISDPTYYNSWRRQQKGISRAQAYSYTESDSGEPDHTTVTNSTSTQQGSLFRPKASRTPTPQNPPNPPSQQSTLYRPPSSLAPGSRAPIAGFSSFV

B1: PKP2 (protein, UniProt Q99959 1-881)
chain: MAAPGAPAEYGYIRTVLGQQILGQLDSSSLALPSEAKLKLAGSSGRGGQTVKSLRIQEQVQQTLARKGRSSVGNGNLHRTSSVPEYVYNLHLVENDFVGGRSPVPKTYDMLKAGTTATYEGRWGRGTAQYSSQKSVEERSLRHPLRRLEISPDSSPERAHYTHSDYQYSQRSQAGHTLHHQESRRAALLVPPRYARSEIVGVSRAGTTSRQRHFDTYHRQYQHGSVSDTVFDSIPANPALLTYPRPGTSRSMGNLLEKENYLTAGLTVGQVRPLVPLQPVTQNRASRSSWHQSSFHSTRTLREAGPSVAVDSSGRRAHLTVGQAAAGGSGNLLTERSTFTDSQLGNADMEMTLERAVSMLEADHMLPSRISAAATFIQHECFQKSEARKRVNQLRGILKLLQLLKVQNEDVQRAVCGALRNLVFEDNDNKLEVAELNGVPRLLQVLKQTRDLETKKQITDHTVNLRSRNGWPGAVAHACNPSTLGGQGGRITRSGVRDQPDQHGLLWNLSSNDKLKNLMITEALLTLTENIIIPFSGWPEGDYPKANGLLDFDIFYNVTGCLRNMSSAGADGRKAMRRCDGLIDSLVHYVRGTIADYQPDDKATENCVCILHNLSYQLEAELPEKYSQNIYIQNRNIQTDNNKSIGCFGSRSRKVKEQYQDVPMPEEKSNPKGVEWLWHSIVIRMYLSLIAKSVRNYTQEASLGALQNLTAGSGPMPTSVAQTVVQKESGLQHTRKMLHVGDPSVKKTAISLLRNLSRNLSLQNEIAKETLPDLVSIIPDTVPSTDLLIETTASACYTLNNIIQNSYQNARDLLNTGGIQKIMAISAGDAYASNKASKAASVLLYSLWAHTELHHAYKKAQFKKTDFVNSRTAKAYHSLKD
B2: SYNJ2 (protein, UniProt O15056 1-1496)
chain: MALSKGLRLLGRLGAEGDCSVLLEARGRDDCLLFEAGTVATLAPEEKEVIKGQYGKLTDAYGCLGELRLKSGGTSLSFLVLVTGCTSVGRIPDAEIYKITATDFYPLQEEAKEEERLIALKKILSSGVFYFSWPNDGSRFDLTVRTQKQGDDSSEWGNSFFWNQLLHVPLRQHQVSCCDWLLKIICGVVTIRTVYASHKQAKACLVSRVSCERTGTRFHTRGVNDDGHVSNFVETEQMIYMDDGVSSFVQIRGSVPLFWEQPGLQVGSHHLRLHRGLEANAPAFDRHMVLLKEQYGQQVVVNLLGSRGGEEVLNRAFKKLLWASCHAGDTPMINFDFHQFAKGGKLEKLETLLRPQLKLHWEDFDVFTKGENVSPRFQKGTLRMNCLDCLDRTNTVQSFIALEVLHLQLKTLGLSSKPIVDRFVESFKAMWSLNGHSLSKVFTGSRALEGKAKVGKLKDGARSMSRTIQSNFFDGVKQEAIKLLLVGDVYGEEVADKGGMLLDSTALLVTPRILKAMTERQSEFTNFKRIRIAMGTWNVNGGKQFRSNVLRTAELTDWLLDSPQLSGATDSQDDSSPADIFAVGFEEMVELSAGNIVNASTTNKKMWGEQLQKAISRSHRYILLTSAQLVGVCLYIFVRPYHVPFIRDVAIDTVKTGMGGKAGNKGAVGIRFQFHSTSFCFICSHLTAGQSQVKERNEDYKEITQKLCFPMGRNVFSHDYVFWCGDFNYRIDLTYEEVFYFVKRQDWKKLLEFDQLQLQKSSGKIFKDFHEGAINFGPTYKYDVGSAAYDTSDKCRTPAWTDRVLWWRKKHPFDKTAGELNLLDSDLDVDTKVRHTWSPGALQYYGRAELQASDHRPVLAIVEVEVQEVDVGARERVFQEVSSFQGPLDATVVVNLQSPTLEEKNEFPEDLRTELMQTLGSYGTIVLVRINQGQMLVTFADSHSALSVLDVDGMKVKGRAVKIRPKTKDWLKGLREEIIRKRDSMAPVSPTANSCLLEENFDFTSLDYESEGDILEDDEDYLVDEFNQPGVSDSELGGDDLSDVPGPTALAPPSKSPALTKKKQHPTYKDDADLVELKRELEAVGEFRHRSPSRSLSVPNRPRPPQPPQRPPPPTGLMVKKSASDASISSGTHGQYSILQTARLLPGAPQQPPKARTGISKPYNVKQIKTTNAQEAEAAIRCLLEARGGASEEALSAVAPRDLEASSEPEPTPGAAKPETPQAPPLLPRRPPPRVPAIKKPTLRRTGKPLSPEEQFEQQTVHFTIGPPETSVEAPPVVTAPRVPPVPKPRTFQPGKAAERPSHRKPASDEAPPGAGASVPPPLEAPPLVPKVPPRRKKSAPAAFHLQVLQSNSQLLQGLTYNSSDSPSGHPPAAGTVFPQGDFLSTSSATSPDSDGTKAMKPEAAPLLGDYQDPFWNLLHHPKLLNNTWLSKSSDPLDSGTRSPKRDPIDPVSAGASAAKAELPPDHEHKTLGHWVTISDQEKRTALQVFDPLAKT
B3: PA2G4 (protein, UniProt Q9UQ80 1-394)
chain: MSGEDEQQEQTIAEDLVVTKYKMGGDIANRVLRSLVEASSSGVSVLSLCEKGDAMIMEETGKIFKKEKEMKKGIAFPTSISVNNCVCHFSPLKSDQDYILKEGDLVKIDLGVHVDGFIANVAHTFVVDVAQGTQVTGRKADVIKAAHLCAEAALRLVKPGNQNTQVTEAWNKVAHSFNCTPIEGMLSHQLKQHVIDGEKTIIQNPTDQQKKDHEKAEFEVHEVYAVDVLVSSGEGKAKDAGQRTTIYKRDPSKQYGLKMKTSRAFFSEVERRFDAMPFTLRAFEDEKKARMGVVECAKHELLQPFNVLYEKEGEFVAQFKFTVLLMPNGPMRITSGPFEPDLYKSEMEVQDAELKALLQSSASRKTQKKKKKKASKTAENATSGETLEENEAGD

Molecular target: BTN3A1-BirA(R118G)-HA (human) (UniProt O00481)
Test: proximity labelling

Row | Molecule | binding
1 | TANC1 (from UniProt Q9C0D5 1-1861) | binds
2 | CARMIL1 (from UniProt Q5VZK9 1-1371) | binds
3 | SDK2 (from UniProt Q58EX2 21-2172) | binds
4 | B1 | binds
5 | B2 | binds
6 | B3 | binds
